Paper PMC6753162

Amino acid sequences for entries named in this document (tags omitted). Residues count along the entry.
UniProt Q8IHZ9: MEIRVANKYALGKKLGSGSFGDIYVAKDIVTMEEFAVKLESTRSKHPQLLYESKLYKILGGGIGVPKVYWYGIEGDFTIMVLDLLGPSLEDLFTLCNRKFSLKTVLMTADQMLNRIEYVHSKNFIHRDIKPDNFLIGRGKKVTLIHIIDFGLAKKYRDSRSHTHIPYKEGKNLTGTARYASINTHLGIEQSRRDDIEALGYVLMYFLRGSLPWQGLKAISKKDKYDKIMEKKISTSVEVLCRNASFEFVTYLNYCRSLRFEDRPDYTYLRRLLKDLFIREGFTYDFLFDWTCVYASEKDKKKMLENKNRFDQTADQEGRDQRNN
UniProt Q8II24: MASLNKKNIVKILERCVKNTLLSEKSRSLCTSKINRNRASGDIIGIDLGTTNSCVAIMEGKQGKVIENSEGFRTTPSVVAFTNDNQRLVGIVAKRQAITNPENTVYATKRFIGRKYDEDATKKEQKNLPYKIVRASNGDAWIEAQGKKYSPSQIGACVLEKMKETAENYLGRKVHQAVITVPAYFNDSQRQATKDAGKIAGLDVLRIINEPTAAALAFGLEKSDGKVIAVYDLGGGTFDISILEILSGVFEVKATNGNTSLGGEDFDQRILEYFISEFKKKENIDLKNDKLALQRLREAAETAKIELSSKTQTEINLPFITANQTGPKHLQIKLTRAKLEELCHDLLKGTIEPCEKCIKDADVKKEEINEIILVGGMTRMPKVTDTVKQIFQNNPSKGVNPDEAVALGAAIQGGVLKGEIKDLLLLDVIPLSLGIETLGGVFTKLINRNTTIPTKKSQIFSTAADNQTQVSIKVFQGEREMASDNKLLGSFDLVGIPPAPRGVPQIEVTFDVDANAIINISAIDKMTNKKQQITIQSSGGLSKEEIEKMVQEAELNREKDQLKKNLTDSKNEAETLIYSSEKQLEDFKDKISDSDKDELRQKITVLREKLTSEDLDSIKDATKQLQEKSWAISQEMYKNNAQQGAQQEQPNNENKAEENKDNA
UniProt Q27743: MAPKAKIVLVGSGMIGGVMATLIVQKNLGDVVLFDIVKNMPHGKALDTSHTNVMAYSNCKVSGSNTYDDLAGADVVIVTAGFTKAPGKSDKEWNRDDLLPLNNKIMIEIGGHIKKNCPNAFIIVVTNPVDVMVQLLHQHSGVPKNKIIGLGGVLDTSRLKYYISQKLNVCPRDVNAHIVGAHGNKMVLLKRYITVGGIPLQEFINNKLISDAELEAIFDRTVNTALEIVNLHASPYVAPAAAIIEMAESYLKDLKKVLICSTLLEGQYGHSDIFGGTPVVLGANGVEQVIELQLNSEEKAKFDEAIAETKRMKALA
UniProt P50250: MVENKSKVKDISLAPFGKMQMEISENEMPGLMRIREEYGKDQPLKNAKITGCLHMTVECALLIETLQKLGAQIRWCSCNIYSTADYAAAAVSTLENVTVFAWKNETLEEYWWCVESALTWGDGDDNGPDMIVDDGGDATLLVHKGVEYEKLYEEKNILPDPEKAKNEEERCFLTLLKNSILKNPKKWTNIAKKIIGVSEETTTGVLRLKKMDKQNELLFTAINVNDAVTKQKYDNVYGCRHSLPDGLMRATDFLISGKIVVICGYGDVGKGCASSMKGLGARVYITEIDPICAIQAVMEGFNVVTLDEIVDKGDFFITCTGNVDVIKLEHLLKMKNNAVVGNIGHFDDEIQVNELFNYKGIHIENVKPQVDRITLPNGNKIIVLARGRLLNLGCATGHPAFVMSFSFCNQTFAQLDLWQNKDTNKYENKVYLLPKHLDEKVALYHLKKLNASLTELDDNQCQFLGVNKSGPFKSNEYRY
UniProt Q8IDJ8: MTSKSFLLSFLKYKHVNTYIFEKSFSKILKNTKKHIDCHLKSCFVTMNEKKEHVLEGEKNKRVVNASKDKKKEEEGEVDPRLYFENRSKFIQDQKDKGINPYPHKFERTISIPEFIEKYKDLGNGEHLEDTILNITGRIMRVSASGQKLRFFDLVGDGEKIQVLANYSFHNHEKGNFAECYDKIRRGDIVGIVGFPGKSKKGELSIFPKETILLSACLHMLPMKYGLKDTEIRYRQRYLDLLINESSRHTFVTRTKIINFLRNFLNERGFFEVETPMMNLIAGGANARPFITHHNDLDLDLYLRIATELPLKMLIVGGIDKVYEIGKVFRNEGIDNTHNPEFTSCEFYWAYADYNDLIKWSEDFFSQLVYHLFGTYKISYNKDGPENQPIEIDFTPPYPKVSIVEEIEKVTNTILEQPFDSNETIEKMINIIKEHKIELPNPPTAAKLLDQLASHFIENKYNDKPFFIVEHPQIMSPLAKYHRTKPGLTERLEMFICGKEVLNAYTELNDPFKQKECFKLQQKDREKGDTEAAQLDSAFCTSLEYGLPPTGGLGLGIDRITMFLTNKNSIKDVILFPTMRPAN
UniProt Q8I3X4: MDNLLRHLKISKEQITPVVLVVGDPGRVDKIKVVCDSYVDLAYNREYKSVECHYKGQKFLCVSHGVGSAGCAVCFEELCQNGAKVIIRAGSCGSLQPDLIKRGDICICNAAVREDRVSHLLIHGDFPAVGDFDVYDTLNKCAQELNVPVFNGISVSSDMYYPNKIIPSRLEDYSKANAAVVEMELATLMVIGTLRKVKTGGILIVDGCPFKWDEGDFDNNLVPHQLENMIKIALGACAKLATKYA
UniProt Q9TY95, residues 23-997: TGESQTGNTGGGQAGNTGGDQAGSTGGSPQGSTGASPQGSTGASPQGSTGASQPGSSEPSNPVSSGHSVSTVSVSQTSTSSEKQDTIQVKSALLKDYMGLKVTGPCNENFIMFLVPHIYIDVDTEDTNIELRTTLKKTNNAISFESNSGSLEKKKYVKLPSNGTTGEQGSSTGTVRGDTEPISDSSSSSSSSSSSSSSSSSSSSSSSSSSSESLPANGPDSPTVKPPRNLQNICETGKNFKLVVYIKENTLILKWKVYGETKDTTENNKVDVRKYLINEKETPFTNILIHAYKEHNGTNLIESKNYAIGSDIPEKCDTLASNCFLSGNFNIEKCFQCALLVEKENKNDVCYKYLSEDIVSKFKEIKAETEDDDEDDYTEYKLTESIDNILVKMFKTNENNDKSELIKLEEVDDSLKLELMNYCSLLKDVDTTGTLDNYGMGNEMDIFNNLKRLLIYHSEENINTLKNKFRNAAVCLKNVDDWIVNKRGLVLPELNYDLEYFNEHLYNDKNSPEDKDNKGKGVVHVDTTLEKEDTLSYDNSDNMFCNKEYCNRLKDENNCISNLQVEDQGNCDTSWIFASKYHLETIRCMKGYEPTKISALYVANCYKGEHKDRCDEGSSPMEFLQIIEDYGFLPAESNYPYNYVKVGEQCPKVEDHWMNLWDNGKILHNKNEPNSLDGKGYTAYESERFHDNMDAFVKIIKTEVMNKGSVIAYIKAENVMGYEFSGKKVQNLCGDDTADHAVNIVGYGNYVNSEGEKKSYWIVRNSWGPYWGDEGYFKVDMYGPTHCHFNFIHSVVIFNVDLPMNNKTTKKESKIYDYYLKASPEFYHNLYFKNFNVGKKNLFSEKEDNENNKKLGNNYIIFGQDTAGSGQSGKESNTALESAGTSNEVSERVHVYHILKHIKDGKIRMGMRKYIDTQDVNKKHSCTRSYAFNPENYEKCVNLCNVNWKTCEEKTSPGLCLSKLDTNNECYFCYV

What was measured:
[1] = target: T1, PfPrx1a wild type (P. falciparum) (UniProt Q8IL80); assay: affinity purification with mass spectrometry; mixed disulfide fishing: reduced His-tagged Prx (wild type or Cys mutant) coupled to CNBr-activated Sepharose 4B, incubated with about 6 mg P. falciparum 3D7 trophozoite lysate protein, RT, 2 h; washed with 100 mM Tris, 500 mM NaCl, pH 8.0; eluted with 10 mM DTT; proteins found in two or three of three experiments, those on empty beads subtracted; only the target purified
T1 sequence: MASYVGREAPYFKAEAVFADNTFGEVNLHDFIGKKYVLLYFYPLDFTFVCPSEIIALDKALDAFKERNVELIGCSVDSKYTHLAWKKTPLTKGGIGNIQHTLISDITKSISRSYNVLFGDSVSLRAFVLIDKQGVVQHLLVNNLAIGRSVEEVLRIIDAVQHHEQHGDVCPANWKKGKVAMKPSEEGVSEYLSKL

[2] = target: T1, PfPrx1a wild type (P. falciparum); assay: affinity purification with mass spectrometry; […], RT, 2 h; […], pH 8.0; […]; only the target purified
[3] = target: T2, PfPrx1m wild type (P. falciparum) (UniProt Q8I5Q6); assay: affinity purification with mass spectrometry; mixed disulfide fishing: reduced His-tagged Prx (wild type or Cys mutant) coupled to CNBr-activated Sepharose 4B, incubated with about 6 mg P. falciparum 3D7 trophozoite lysate protein, RT, 2 h; washed with 100 mM Tris, 500 mM NaCl, pH 8.0; eluted with 10 mM DTT; proteins found in two or three of three experiments, those on empty beads subtracted; only the target purified
T2 sequence: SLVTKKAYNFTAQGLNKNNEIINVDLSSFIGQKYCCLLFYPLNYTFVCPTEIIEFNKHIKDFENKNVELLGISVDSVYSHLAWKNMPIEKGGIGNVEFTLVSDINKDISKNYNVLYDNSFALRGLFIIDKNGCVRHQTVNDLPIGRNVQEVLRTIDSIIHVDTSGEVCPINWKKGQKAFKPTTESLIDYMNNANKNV

[4] = target: T1, PfPrx1a wild type (P. falciparum); assay: affinity purification with mass spectrom; […], RT, 2 h; […], pH 8.0; […]; only the target purified

Row | Substance | binding [1] | further results
1 | 26S protease regulatory subunit 10B | binds | 
2 | 26S proteasome AAA-ATPase subunit RPT3 | binds | 
3 | 26S proteasome regulatory subunit RPN11 | binds | 
4 | 40S ribosomal protein S5 | binds | 
5 | 40S ribosomal protein S7 | binds | 
6 | 40S ribosomal protein S15A |  | binding [2]: binds
7 | 40S ribosomal protein S21 (RPS21) | binds | 
8 | 60S ribosomal protein L5 | binds | 
9 | 60S ribosomal protein L6-2 | binds | 
10 | 60S ribosomal protein P0 (PfP0) | binds | 
11 | Acyl-CoA synthetase (ACS10) (enzyme) |  | binding [3]: binds
12 | Carbamoyl phosphate synthetase (cpsSII) (enzyme) | binds | 
13 | Casein kinase 1 (CK1) (from UniProt Q8IHZ9 1-324) (enzyme) | binds | 
14 | Casein kinase 2, alpha subunit (enzyme) | binds | 
15 | Diacylglycerol kinase (enzyme) |  | binding [3]: binds
16 | Heat shock protein 70 (HSP70-3) (from UniProt Q8II24 1-663) |  | binding [4]: binds

Row | Substance | binding [1] | further results
17 | L-lactate dehydrogenase (LDH), endogenous (from UniProt Q27743 1-316) (enzyme) | binds | 
18 | Phosphoglycerate mutase (enzyme) | binds | 
19 | S-adenosyl-L-homocysteine hydrolase (SAHH), endogenous (from UniProt P50250 1-479) (enzyme) | binds | 
20 | asparagine-tRNA ligase (enzyme) | binds | 
21 | dihydropteroate synthetase (DHPS) (enzyme) | binds | 
22 | endoplasmin | binds | 
23 | eukaryotic initiation factor | binds | 
24 | eukaryotic translation initiation factor 2 gamma subunit | binds | 
25 | glutamine-tRNA ligase | binds | 
26 | karyopherin alpha (KARalpha) | binds | 
27 | lysine-tRNA ligase (KRS1) (from UniProt Q8IDJ8 1-583) |  | binding [4]: binds
28 | nascent polypeptide-associated complex alpha chain | binds | 
29 | protein phosphatase 2C (PP2C) (enzyme) | binds | 
30 | purine nucleoside phosphorylase (PNP) (from UniProt Q8I3X4 1-245) (enzyme) | binds | 
31 | translation initiation factor 4E (eIF4E) | binds | 
32 | ubiquitin carboxyl-terminal hydrolase | binds | 

The next lines start with results.

Row | binding [1] | Substance | further results
33 | binds | 26S protease regulatory subunit 4 | 
34 | binds | 26S protease regulatory subunit 7 | 
35 | binds | 26S protease regulatory subunit 8 | 
36 | binds | 40S ribosomal protein S3 | 
37 | binds | 40S ribosomal protein S4 | 
38 | binds | 40S ribosomal protein S18 | 
39 | binds | 40S ribosomal protein S23 | 
40 | binds | 60S acidic ribosomal protein P1 | 
41 | binds | 60S ribosomal protein L3 (RPL3) | 
42 | binds | 60S ribosomal protein L14 | 
43 | binds | 60S ribosomal protein L17 | 
44 | binds | 60S ribosomal protein L35ae | 
45 | binds | Inosine-5′-monophosphate dehydrogenase (enzyme) | 
46 | binds | Phosphoribosyl pyrophosphate synthetase (enzyme) | 
47 | binds | acyl-CoA synthetase (ACS11) (enzyme) | 
48 | binds | dolichyl-phosphate-mannose protein mannosyltransferase (enzyme) | 
49 | binds | elongation factor 1-gamma | 
50 | binds | eukaryotic translation initiation factor 3 subunit 5 | 
51 | binds | eukaryotic translation initiation factor 3 subunit 8 | 
52 | binds | eukaryotic translation initiation factor 3 subunit 10 | 
53 | binds | proteasome regulatory protein | 
54 | binds | protein disulfide isomerase (PDI-11) (enzyme) | 
55 | binds | serine repeat antigen 5 (SERA5) (from UniProt Q9TY95 23-997) | 
56 | binds | suppressor of kinetochore protein 1 | 
57 | binds | translation initiation factor IF-2 | 
58 | binds | ubiquitin carboxyl-terminal hydrolase 2 (enzyme) | 

These are yes or no findings as the source states them, for the method shown. Binding seen in cells or lysates may run through a third protein. A yes stands for co-enrichment or nearness to the bait. Other partners may have been found.
